From patent CN113265001A
Results are given in words; binding and its absence hold for the method and conditions named. Some results given as binding are weak or reduced against the parent protein; the word gives no strength.

By UniProt entry, the sequences of proteins in these tests, tags left out. Residues count along the entry.
UniProt Q02223, residues 1-54: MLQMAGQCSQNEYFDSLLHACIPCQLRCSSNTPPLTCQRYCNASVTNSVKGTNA

Biological target: BCMA-His重组蛋白 (UniProt Q02223)
Experiment: ELISA screen of clones on coated BCMA-His

binding: binds
B1: BCMA-12 粗提VHH抗体 (VHH, not shown: small tags and cut ends)
VHH: EVQLVESGGDSVQAGGSLRLSCAVSGYTDSKNLMGWFRQAPGKEREGVAVIYTGGGRPVYADSVKGRFTISQDSAKNTVYLQMNSLKPEDTALYYCAADYLGGAWPFGAYRYWGQGTQVTVSS
